This is an account of results in paper PMC2134951.

Protein sequences, listed by entry. Tags and fused reporters are not part of them. Lines headed by an entry give the natural chain unless they say otherwise; changes in a name come on top.
UniProt Q5ZS31: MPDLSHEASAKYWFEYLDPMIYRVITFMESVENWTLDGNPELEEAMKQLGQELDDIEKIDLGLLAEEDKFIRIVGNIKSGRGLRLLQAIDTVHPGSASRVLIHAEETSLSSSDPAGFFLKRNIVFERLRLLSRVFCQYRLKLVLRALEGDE
UniProt Q6RCQ6: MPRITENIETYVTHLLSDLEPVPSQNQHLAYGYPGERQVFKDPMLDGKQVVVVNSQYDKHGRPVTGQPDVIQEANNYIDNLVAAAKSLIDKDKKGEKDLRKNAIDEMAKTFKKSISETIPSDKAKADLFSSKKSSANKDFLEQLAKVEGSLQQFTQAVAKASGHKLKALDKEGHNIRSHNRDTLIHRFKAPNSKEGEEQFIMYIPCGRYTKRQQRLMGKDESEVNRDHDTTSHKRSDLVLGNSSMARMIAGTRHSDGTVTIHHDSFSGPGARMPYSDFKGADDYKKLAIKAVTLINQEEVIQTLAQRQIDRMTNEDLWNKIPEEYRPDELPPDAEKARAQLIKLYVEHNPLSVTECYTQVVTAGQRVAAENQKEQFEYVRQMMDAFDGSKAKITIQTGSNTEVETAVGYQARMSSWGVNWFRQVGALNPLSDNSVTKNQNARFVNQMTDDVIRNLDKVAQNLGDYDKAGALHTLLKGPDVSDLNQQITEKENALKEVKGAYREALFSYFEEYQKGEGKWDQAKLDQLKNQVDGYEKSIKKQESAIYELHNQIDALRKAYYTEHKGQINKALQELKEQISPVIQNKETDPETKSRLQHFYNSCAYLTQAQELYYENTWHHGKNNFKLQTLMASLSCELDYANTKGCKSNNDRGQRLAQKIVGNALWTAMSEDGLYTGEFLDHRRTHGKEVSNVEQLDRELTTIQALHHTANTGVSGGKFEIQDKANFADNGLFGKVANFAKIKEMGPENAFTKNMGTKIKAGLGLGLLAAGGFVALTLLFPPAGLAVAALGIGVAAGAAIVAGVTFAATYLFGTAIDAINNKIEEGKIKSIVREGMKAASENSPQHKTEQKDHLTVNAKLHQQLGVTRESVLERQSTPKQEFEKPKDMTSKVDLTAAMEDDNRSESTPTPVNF

The target of the assay is H6IcmW/IcmS complex (L. pneumophila) (UniProt Q5ZS31). Description: pull-down.

Results are given in words; binding and its absence hold for the method and conditions named. In cells and extracts the contact can be indirect. Some results given as binding are weak or reduced against the parent protein; the word gives no strength.

For SidF (from UniProt Q6RCQ6 1-912), the binding entry is listed as “binds”.
